Source: PubChem BioAssay AID2685 (National Center for Advancing Translational Sciences (NCATS), 2010)
The other results are listed elsewhere or left out. Shown are side measurements of this screen, not its main read-out; they come without a call. Compounds called inactive in the main read-out are mostly missing here. Words in brackets tell the shape of the fitted curve; partial curves, single points and poor fits give uncertain potencies.

Assay: qHTS Assay for Lipid Storage Modulators in Drosophila S3 Cells;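 on cell number change: cells counted by Cell Tracker Red CMTPX staining in the red channel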
Settings: BODIPY lipid droplet fluorescence, 18-24 h; for cell number change: measured here: cell count max response, cells fed with added oleic acid
Method in brief: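 Drosophila S3 cells got compounds at several concentrations plus oleic acid (400 uM solution). Laser-scanning cytometry with 488 nm excitation read lipid droplets at 500-530 nm and cells at 575-640 nm. Percent activity was relative to 20 uM Triacsin C.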

[1] = measured here: lipid fluorescence (Fed channel) AC50, cells fed with added oleic acid
[2] = measured here: cell number channel AC50, cells fed with added oleic acid

Structure (SMILES)	cell number change [%]	AC50 [1]	AC50 [2]
CCc1cc(=O)oc2c(C)c(OCC(=O)NCCCN3CCOCC3)ccc12	-2.83	29.1 µM [falling, single point]	–
CCOc1ccc2nc(SC3CC(=O)N(c4ccccc4)C3=O)sc2c1 (stereo not drawn)	-0.834	29.1 µM [falling, single point]	–
CCCc1ccc(-c2csc(NC(=O)C3=COCCO3)n2)cc1	2.46	0.0058 µM [rising, full curve, poor fit]	–
COc1ccc(N2CCN(C(CNC(=O)OCc3ccccc3)c3ccco3)CC2)cc1 (stereo not drawn)	21	–	–
Cc1ccc(CCc2nnc(SCC(=O)Nc3cc(Cl)ccc3Cl)n2-c2ccccc2)o1	8.93	7.31 µM [rising, partial curve]	–
Cc1[nH]c(N=Nc2ccccc2)nc1N=Nc1ccccc1	-58.5	23.1 µM [falling, single point]	23.1 µM [falling, single point]
COc1cc2nc(Cl)nc(N3CCN(C)CC3)c2cc1OC	–	0.651 µM [rising, single point]	–
COc1cccc(NC(=O)CCc2ccccc2)c1	-9.64	4.11 µM [falling, single point]	–
O=C(Nc1ccc2oc(=O)ccc2c1)c1ccco1	-13.2	1.84 µM [rising, partial curve]	–
NC(N)=NC(=O)Cc1c(Cl)cccc1Cl	0.103	1.03 µM [falling, partial curve]	–
Cc1cc(N)n(-c2cc(C)c3ccccc3n2)n1	-14.8	20.6 µM [rising, single point]	–
CCOC(=O)c1sc(NC(=O)C(CC)Sc2nnc3c4ccccc4n(CC)c3n2)nc1C (stereo not drawn)	-26.8	8.2 µM [falling, partial curve]	–
Cn1c2ccccc2c2c(C(=O)N3CCN(c4ccccc4)CC3)cn(C3CCCC3)c(=O)c21	6.56	1.3 µM [rising, partial curve]	–
COc1ccccc1CNCC(=O)Nc1ccc(N2CCOCC2)cc1	15.3	0.58 µM [rising, single point]	–
CC(C)(C)n1cnc2cc(NC(=O)c3ccco3)ccc21	6.58	0.112 µM [falling, full curve, poor fit]	–
CCC1=NN(C(=O)c2ccc([N+](=O)[O-])cc2)C(O)(c2ccccc2)C1 (stereo not drawn)	0.587	29.1 µM [falling, single point]	–
NC(=O)NCCCC(NC(=O)c1ccc(C#CC2(O)CCCCC2)cc1)C(=O)O (stereo not drawn)	6.51	0.00517 µM [falling, full curve, poor fit]	0.00651 µM [falling, full curve, poor fit]
CCC(O)CNC(=O)NC(=C(Cl)Cl)c1ccc(C)c(F)c1 (stereo not drawn)	-12.8	20.6 µM [falling, partial curve, poor fit]	–
Cc1cccc(-c2nc(CN3CCN(C(=O)C4CCCO4)CC3)cs2)c1 (stereo not drawn)	-27.3	0.103 µM [falling, full curve, poor fit]	–
Cc1cccc(OCCCC(=O)NC2CCCCC2)c1	-8.2	0.58 µM [rising, full curve, poor fit]	–

9 entries from above, comma-delimited.
Structure (SMILES),cell number change [%],AC50 [1],AC50 [2]
CCOc1ccc2nc(SC3CC(=O)N(c4ccccc4)C3=O)sc2c1 (stereo not drawn),-0.834,"29.1 µM [falling, single point]",–
CCCc1ccc(-c2csc(NC(=O)C3=COCCO3)n2)cc1,2.46,"0.0058 µM [rising, full curve, poor fit]",–
Cc1ccc(CCc2nnc(SCC(=O)Nc3cc(Cl)ccc3Cl)n2-c2ccccc2)o1,8.93,"7.31 µM [rising, partial curve]",–
Cc1[nH]c(N=Nc2ccccc2)nc1N=Nc1ccccc1,-58.5,"23.1 µM [falling, single point]","23.1 µM [falling, single point]"
COc1cc2nc(Cl)nc(N3CCN(C)CC3)c2cc1OC,–,"0.651 µM [rising, single point]",–
NC(N)=NC(=O)Cc1c(Cl)cccc1Cl,0.103,"1.03 µM [falling, partial curve]",–
CCOC(=O)c1sc(NC(=O)C(CC)Sc2nnc3c4ccccc4n(CC)c3n2)nc1C (stereo not drawn),-26.8,"8.2 µM [falling, partial curve]",–
CCC1=NN(C(=O)c2ccc([N+](=O)[O-])cc2)C(O)(c2ccccc2)C1 (stereo not drawn),0.587,"29.1 µM [falling, single point]",–
Cc1cccc(-c2nc(CN3CCN(C(=O)C4CCCO4)CC3)cs2)c1 (stereo not drawn),-27.3,"0.103 µM [falling, full curve, poor fit]",–

Going on with the list:

Structure (SMILES)	cell number change [%]	AC50 [1]	AC50 [2]
COc1ccc(C(=O)/C=C/c2ccccc2)c(O)c1	-5.45	–	–
Cc1c(C(=O)OCc2nc3ccsc3c(=O)[nH]2)oc2ccccc12	30.9	–	–
CCNC(=S)Nc1cc2oc3ccccc3c2cc1OC	25.9	–	–
CCN1CCN(C(=O)C2CCC(=O)N(CCCN3CCCC3=O)C2)CC1 (stereo not drawn)	–	–	0.0517 µM [falling, full curve, poor fit]
O=S(=O)(/N=C(\c1ccccc1)N1CCOCC1)c1cccs1	-11.9	6.51 µM [falling, partial curve, poor fit]	–
CC(C)(C)n1ncc2c(=O)n(CC(=O)NCc3ccco3)cnc21	-17.3	1.64 µM [falling, full curve, poor fit]	–
Cc1ccc(CNC(=O)c2cc3c(=O)n(C)c4ccccc4c3n2C)o1	-25.2	7.31 µM [rising, partial curve]	–
C#CCOCCOCCOCCNc1nc(N2CCN(C(=O)[C@H]([C@@H](C)O)n3cc(CCCCN)nn3)CC2)nc(N2CCN(C(=O)[C@H]([C@@H](C)CC)n3cc(CCCCN)nn3)CC2)n1	-8.09	10.3 µM [rising, partial curve]	–
CCOc1cc(N2CCOCC2)c(OCC)cc1NC(=O)CN1C(=O)NC2(CCCCC2)C1=O	-1.07	18.4 µM [rising, single point]	–
COc1ccc(CN2CCC(=O)N([C@H](CO)CC(C)C)CC2)cc1	15	–	–
CCCOC(=O)C1[C@H]2C(=O)N(CC3CCCO3)C[C@]23C=C[C@H]1O3 (stereo partly drawn)	14.8	29.1 µM [falling, single point]	6.51 µM [falling, single point]
Cc1ccc(N(C(C)C(=O)Nc2c(C)n(C)n(-c3ccccc3)c2=O)S(C)(=O)=O)cc1C (stereo not drawn)	–	–	0.0651 µM [falling, full curve]
CC(=O)N(Cc1cc(=O)[nH]c2ccccc12)c1ccc(C)cc1C	25.6	0.00517 µM [rising, full curve, poor fit]	2.91 µM [rising, partial curve, poor fit]
O=C1N2CCSC2=NC1(Nc1nccs1)C(F)(F)F (stereo not drawn)	-16.8	20.6 µM [falling, partial curve, poor fit]	–
CCn1c(NCCc2ccc(OC)c(OC)c2)nc2c1c(=O)n(C)c(=O)n2C	1.94	1.84 µM [rising, partial curve]	–
CCN(CC)C(=O)Oc1cc2c(-c3cc4cccc(OC)c4o3)cc(=O)oc2cc1C	2.59	–	–
CCN1CCN(C(=S)c2ccc(O)cc2)CC1	-3.65	2.59 µM [falling, full curve, poor fit]	–
O=C(O)CCC(=O)Nc1ccc(N2CCOCC2)cc1	-18.2	25.9 µM [falling, single point]	–
O=S(=O)(N=S(N1CCCCC1)N1CCCCC1)c1ccccc1	-5.52	16.4 µM [rising, single point]	–
